# Source: article PMC7295033
# Protein sequences, listed by entry. Tags and fused reporters are not part of them.
# UniProt Q60857: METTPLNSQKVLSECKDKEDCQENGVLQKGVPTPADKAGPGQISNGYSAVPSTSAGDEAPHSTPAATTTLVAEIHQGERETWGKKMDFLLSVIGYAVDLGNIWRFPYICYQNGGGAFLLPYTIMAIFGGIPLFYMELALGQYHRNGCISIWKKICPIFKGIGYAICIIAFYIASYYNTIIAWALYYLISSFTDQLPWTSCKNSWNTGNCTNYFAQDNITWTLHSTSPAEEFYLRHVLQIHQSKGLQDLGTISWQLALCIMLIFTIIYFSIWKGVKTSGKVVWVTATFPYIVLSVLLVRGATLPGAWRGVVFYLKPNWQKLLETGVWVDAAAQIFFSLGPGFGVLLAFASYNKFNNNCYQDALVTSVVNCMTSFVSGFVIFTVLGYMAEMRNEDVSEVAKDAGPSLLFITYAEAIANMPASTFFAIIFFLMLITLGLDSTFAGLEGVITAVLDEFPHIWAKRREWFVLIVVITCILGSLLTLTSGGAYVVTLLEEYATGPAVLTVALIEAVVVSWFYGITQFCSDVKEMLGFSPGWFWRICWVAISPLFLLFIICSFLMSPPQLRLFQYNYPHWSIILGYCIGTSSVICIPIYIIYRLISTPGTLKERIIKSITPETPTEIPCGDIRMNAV
# B1: Atp9a (protein, UniProt O70228 1-1047)
# chain: MTDSIPLQPVRHKKRVDSRPRAGCCEWLRCCGGGEPRPRTVWLGHPEKRDQRYPRNVINNQKYNFFTFLPGVLFSQFRYFFNFYFLLLACSQFVPEMRLGALYTYWVPLGFVLAVTIIREAVEEIRCYVRDKEMNSQVYSRLTSRGTVKVKSSNIQVGDLILVEKNQRVPADMIFLRTSEKNGSCFLRTDQLDGETDWKLRLPVACTQRLPTAADLLQIRSYVYAEEPNIDIHNFLGTFTREDSDPPISESLSIENTLWAGTVIASGTVVGVVLYTGRELRSVMNTSDPRSKIGLFDLEVNCLTKILFGALVVVSLVMVALQHFAGRWYLQIIRFLLLFSNIIPISLRVNLDMGKIVYSWVIRRDSKIPGTVVRSSTIPEQLGRISYLLTDKTGTLTQNEMVFKRLHLGTVAYGLDSMDEVQSHIFSIYTQQSQDPPAQKGPTVTTKVRRTMSSRVHEAVKAIALCHNVTPVYESNGVTDQAEAEKQFEDSCRVYQASSPDEVALVQWTESVGLTLVGRDQSSMQLRTPGDQVLNLTILQVFPFTYESKRMGIIVRDESTGEITFYMKGADVVMAGIVQYNDWLEEECGNMAREGLRVLVVAKKSLTEEQYQDFEARYVQAKLSVHDRSLKVATVIESLEMEMELLCLTGVEDQLQADVRPTLETLRNAGIKVWMLTGDKLETATCTAKNAHLVTRNQDIHVFRLVTNRGEAHLELNAFRRKHDCALVISGDSLEVCLKYYEYEFMELACQCPAVVCCRCAPTQKAQIVRLLQERTGKLTCAVGDGGNDVSMIQESDCGVGVEGKEGKQASLAADFSITQFKHLGRLLMVHGRNSYKRSAALSQFVIHRSLCISTMQAVFSSVFYFASVPLYQGFLIIGYSTIYTMFPVFSLVLDKDVKSEVAMLYPELYKDLLKGRPLSYKTFLIWVLISIYQGSTIMYGALLLFESEFVHIVAISFTSLILTELLMVALTIQTWHWLMTVAELLSLACYIASLVFLHEFIDVYFIATLSFLWKVSVITLVSCLPLYVLKYLRRRFSPPSYSKLTS
# B2: Acsl6 (protein, UniProt Q91WC3 1-697)
# chain: MQTQEILRILRLPELSDLGQFFRSLSATTLVSVGALAAVLAYWLTHRPKALQPPCNLLKQSEEVEDGGGARRSVIGGCTQLLTHYYDDARTMYQVFRRGLSISGNGPCLGFRKPEQPYQWLSYQEVAKRAEFLGSGLLQHDCKVGTEQFVGVFAQNRPEWIIAELACYTYSMVVVPLYDTLGPGSISYIINTADICTVIVDKPHKATLLLEHVERKETPGLKLVILMEPFEDALRERGKKCGVDIKSMQAIEDCGRENHHAPVPPRPDDLSIVCFTSGTTGNPKGAMLTHGNVVADFSGFLKVTEKVIFPRQDDVLISFLPLAHMFERVIQSVVYCHGGRVGFFQGDIRLLSDDMKALRPTIFPVVPRLLNRMYDKIFHQADTSLKRWLLEFAAKRKQAEVRSGIIRNNSIWDELFFNKIQASLGGHVRMIVTGAAPASPTVLGFLRAALGCQVYEGYGQTECTAGCTFTTPGDWTSGHVGAPLPCNHIKLVDAEELNYWTCKGEGEICVKGPNVFKGYLKDEDRTKEALDSDGWLHTGDIGKWLPEGTLKIIDRKKHIFKLAQGEYVAPEKIENIYIRSEPVAQIYVHGDSLKAFLVGIVVPDPEVMPSWAQKKGIEGTYQELCMKKELKKAILDDMVMLGKESGLHSFEQVKAIYIHCDMFSVQNGLLTPTLKAKRPELREYFKKQIEELYLVSV
# B3: Gak (protein, UniProt Q99KY4 1-1305)
# chain: MSLLQSALDFLAGPGSLGGAAGRDQSDFVGQTVELGELRLRVRRVLAEGGFAFVYEAQDLGSGREYALKRLLSNEEEKNRAIIQEVCFLKKLSGHPNIVQFCSAASIGKEESDTGQAEFLLLTELCKGQLVEFLKRVECKGPLSCDSILKIFYQTCRAVQHMHRQKPPIIHRDLKVENLLLSNQGTIKLCDFGSATTISHYPDYSWSAQKRAMVEEEITRNTTPMYRTPEIVDLYSNFPIGEKQDIWALGCILYLLCFRQHPFEDGAKLRIVNGKYSIPVNDTRYTVFHDLIRAMLKVNPVERLSIAEVVRQLQEIAAARNVNPKAPITELLEQNGGYGNSGPSRAQPPCGGTVNSSGVLALAEYDQPYGGFLDILRGGTERLFTNLKDTSSKVIQSVANYAKGDLDISYITSRIAVMSFPAEGVESAIKNNIEDVRMFLDAKHPGHYAVYNLSPRIYRASKFHNRVTECGWAVRRAPHLHSLYTLCRSMHAWLREDHRNVCVVHCMDGRAASAVAVCAFLCFCRLFSTAEAAVYMFSMKRCPPGIWPSHKRYIEYVCDMVAEEPITPHSKPMLVKSVVMTPVPLFSKQRNGCRPFCEVYVGEERVTTTSQEYDRMKEFKIEDGKAVIPLGVTVQGDVLIIIYHARATLGGRLQAKMASMKMFQIQFHTGFVPRNATTVKFAKYDLDACDIQEKYPDLFQVNLEVEVEPRDRPSREAPPWENTSLRGLNPKILFSNREEQQDILSKFGKPELPRQPGSTAQYDAEAGSPEAEITESDSPQSSSTDTNHFLHTLDWQEEKEPETGLDNTSPKESQSVLIADGDGSEVSDEEEASFPSEERKPGAGEDTPRLAAGTKQQDLIFDVGMLAAPQEPVQPEEGVDLLGLHSEGDLRPAAPLQACGVPSSNTDLLSCLLEPSDAAQVGPPGDLLGGEAPLLLASPVSPLGLQNNLQGKVPDTVDPFDQFLLSSNSDTQPCSKPDLFGEFLNSDSVASSTAFPSTHSAPPPSCSTAFLHLGDLPAEPSKVIASSSHPDLLGGWDTWADTATPGPASIPVPEGTLFSSAGHPAPPGPNPSQTKSQNLDPFADLSDLSSSLQGLPAGLPAGGFVGAPAPTQKSNSPWQANRPTAPGTSWTPQAKPAPRASEQLRSHFSVIGAREERGVRVPSFAQKPKVSENDFEDLLPNQGFSKSDKKGPKTMAEMRKQELARDTDPLKLKLLDWIEGKERNIRALLSTLHTVLWDGESRWTPVSMADLVTPEQVKKQYRRAVLVVHPDKATGQPYEQYAKMIFMELNDAWSEFENQGSRPLF
# B4: Dgke (protein, UniProt Q9R1C6 1-564)
# chain: MEGDQRSGPPAQSLLPDGHLVLWTLCSVLLPVFITLWCSLQRSRRQLHRRDIFRKSKHCWRDTDLFSHPTYCCVCAQHILQGAFCDCCGLRVDEGCLKKVDKRFPCKEIMLKNDKAADAMPHHWIRGNVPLCSYCVFCRQQCGSQPKLCDYRCIWCQKTVHDECMRGSLRSEKCDFGEFRNLIIPPSYLTSINQMRKDKNTNYEGLASKFGKQWTPLIILANSRSGTNMGEGLLGEFKILLNPVQVFDVTKTPPIKALQLCTLLPYYSVRVLVCGGDGTVGWVLDAIDEMKIKGQEKYIPEVAVLPLGTGNDLSNTLGWGTGYAGEIPVAQVLRNVMEADGIKLDRWKVQVTNKGYYNLRKPKEFTMNNYFSVGPDALMALNFHAHREKAPSLFSSRILNKAVYLFYGTKDCLVQECKDLNKKIELELDGERVELPNLEGIIVLNIGYWGGGCRLWEGMGDETYPLARHDDGLLEIVGVYGSFHCAQIQVKLANPFRIGQAHTVRLTLKCSMMPMQVDGEPWAQGPCTVTITHKTHALMLYFSGEQSDDDISSPSDHEDVKEAE
# B5: Araf (protein, UniProt P04627 1-604)
# chain: MEPPRGPPVSGAEPSRAVGTVKVYLPNKQRTVVTVREGMSVYDSLDKALKVRGLNQDCCVVYRLIKGRKTVTAWDTAIAPLDGEELIVEVLEDVPLTMHNFVRKTFFSLAFCDFCLKFLFHGFRCQTCGYKFHQHCSSKVPTVCVDMSTNRRQFYHSIQDLSGGSRQQEAPSNLSVNELLTPQGPSPFTQQRDQEHFSFPAPANPPLQRIRSTSTPNVHMVSTTAPMDSSLMQFTAQSFSTDAAGRGGDGAPRGSPSPASVSSGRKSPHSKLPSEQRERKSLADEKKKVKNLGYRDSGYYWEVPPSEVQLLKRIGTGSFGTVFRGRWHGDVAVKVLKVAQPTAEQAQAFKNEMQVLRKTRHVNILLFMGFMTRPGFAIITQWCEGSSLYHHLHVADTRFDMVQLIDVARQTAQGMDYLHAKNIIHRDLKSNNIFLHEGLTVKIGDFGLATVKTRWSGAQPLEQPSGSVLWMAAEVIRMQDPNPYSFQSDVYAYGVVLYELMTGSLPYSHIGSRDQIIFMVGRGYLSPDLSKIFSNCPKAMRRLLTDCLKFQREERPLFPQILATIELLQRSLPKIERSASEPSLHRTQADELPACLLSAARLVP
# Molecular target: serotonin transporter, wildtype (WT SERT) (mouse (endogenous in midbrain synaptosomes)) (UniProt Q60857)
# Test: affinity purification with mass spectrometry; SERT immunoprecipitated with C-terminal anti-SERT serum #48 cross-linked to protein A Dynabeads from midbrain synaptosomes (lysed in PBS + 0.7% DDM, 4°C) of WT, SERT Ala56 and SERT KO (negative control) mice; in-gel tryptic digestion, 8-step MudPIT LC-MS/MS; label-free quantification
row,Binder,binding
1,B1,binds
2,B2,binds
3,B3,binds
4,B4,binds
5,B5,binds

# Results are given in words; binding and its absence hold for the method and conditions named. In cells and extracts the contact can be indirect. Here binding means that the protein was enriched with, or labelled near, the bait; the list need not be complete.
